± gives the standard deviation of the averaged measurements. Values are relative to the signal before dosing, not to a vehicle control; the signal also falls without drug.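 Fibroblast labels name human fibroblasts: mostly primary ones from tissues such as uterus (C12385, HUF), lung (H6013), bone (Hs27A), adrenal (HADF) and skin (WS1), plus mammary HMF and breast cancer-associated Hs343T. The cancer cells are basal-like or mesenchymal-like triple-negative breast cancer lines. The paper calls a changed response a hit when it shifts by more than 3x the replicate standard deviation. The tissue of the other fibroblasts is not given here.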
Tested on: MDAMB468
Assay: relative JC-1 red fluorescence (viability) vs pre-drug, coculture with fibroblast (fraction); higher = more viable cancer cells
Details: 1 µM
Protocol: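 JC-1 labelled TNBC cells cocultured 1:1 (1,500 cells each) with CellTrace Violet stained primary or stromal fibroblasts in 384-well plates in FluoroBrite medium, treated with one of 42 anticancer drugs at 0.1, 1, 10 or 100 uM. JC-1 red fluorescence (mitochondrial integrity in cancer cells only) was read by plate reader every 8 h for 72 h. Values are normalised to each well's pre-drug value. The stock of one drug was tenfold lower, so its dose labels may be too high.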

COc1cc([C@@H]2c3cc4c(cc3[C@@H](O[C@@H]3O[C@@H]5CO[C@@H](c6cccs6)O[C@H]5[C@H](O)[C@H]3O)[C@H]3COC(=O)[C@H]23)OCO4)cc(OC)c1O [Teniposide]
relative JC-1 red fluorescence
Details	8 h	16 h	24 h	32 h	40 h
coculture fibroblast: C12385	0.852 ± 0.015	0.828 ± 0.041	0.787 ± 0.032	0.731 ± 0.039	0.689 ± 0.044
coculture fibroblast: H6013	0.878 ± 0.018	0.891 ± 0.024	0.853 ± 0.046	0.84 ± 0.058	0.833 ± 0.085
coculture fibroblast: H6019	0.84 ± 0.011	0.813 ± 0.017	0.788 ± 0.043	0.74 ± 0.083	0.697 ± 0.11
coculture fibroblast: H6076	0.9069 ± 0.0019	0.8998 ± 0.0047	0.8459 ± 0.0079	0.826 ± 0.018	0.741 ± 0.023
coculture fibroblast: H6231	0.837 ± 0.023	0.876 ± 0.052	0.82 ± 0.085	0.827 ± 0.098	0.755 ± 0.095
coculture fibroblast: HADF	0.895 ± 0.01	0.881 ± 0.017	0.812 ± 0.028	0.788 ± 0.025	0.753 ± 0.018
coculture fibroblast: HCFa	0.8806 ± 0.0031	0.862 ± 0.029	0.806 ± 0.038	0.773 ± 0.04	0.718 ± 0.043
coculture fibroblast: HCPF	0.837 ± 0.016	0.91 ± 0.028	0.835 ± 0.019	0.82244 ± 0.00013	0.7538 ± 0.0039
coculture fibroblast: HHSteC	0.8964 ± 0.0055	0.89982 ± 0.00035	0.849 ± 0.022	0.809 ± 0.026	–
coculture fibroblast: HMF	0.8524 ± 0.0031	0.904 ± 0.013	0.8509 ± 0.0066	0.836 ± 0.013	–
coculture fibroblast: HPFa	0.919 ± 0.027	0.9028 ± 0.0014	0.8912 ± 0.0016	0.837 ± 0.014	–
coculture fibroblast: HUF	0.9 ± 0.017	0.834 ± 0.019	0.789 ± 0.017	0.716 ± 0.018	–
coculture fibroblast: Hs5	0.9791 ± 0.0067	0.9416 ± 0.0029	0.914 ± 0.019	0.88 ± 0.019	–
coculture fibroblast: Hs27A	0.8436 ± 0.0019	0.894 ± 0.012	0.799 ± 0.025	0.806 ± 0.032	–
coculture fibroblast: Hs343T	0.853 ± 0.018	0.907 ± 0.012	0.845 ± 0.032	0.813 ± 0.039	–
coculture fibroblast: WS1	0.83776 ± 0.00018	0.797 ± 0.016	0.768 ± 0.027	0.703 ± 0.039	–

— the supplement of paper PMC6078165
